Source: PubChem BioAssay AID504804 (Drosophila RNAi Screening Center, 2011)
In all, the deposit lists about 19,000 reagents; shown is a random part of those with a known target gene and a result. Over the whole deposit, 47 (0.25%) got an active call. 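Signals are raw, not normalised; exact z-scores behind calls not deposited; actives needed confirmation, so some wells reaching 2 SD are inactive.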 Entries without a mark were called inactive. Reagents against one gene are numbered here. Reagent sequences are not shown.

- Screen: 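Fly genes whose loss lessens doxorubicin-driven cell death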 (primary screen)
- Cell system: Drosophila Kc cells
- Reagent: long dsRNA against Drosophila genes, 0.5 µg dsRNA per well
- Time to read-out: 96 h (48 h knock-down, then 48 h drug)
- Challenge: doxorubicin 5 µg/ml for 48 h, added 48 h after dsRNA
- Measurement: 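Luminescent ATP counts per replicate, not normalised, reflecting viable cells after 48 h dsRNA knock-down followed by 48 h of 5 µg/ml doxorubicin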
- Scale: raw ATP luminescence: higher = more viable cells, protection from doxorubicin
- Call rule: 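z-score of 2 or more over plate mean in both duplicates, retained only when retests and separate dsRNAs confirm the protection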

Knock-down of kmr #1 resulted in: raw ATP luminescence, replicate 1 = 2.62e5; raw ATP luminescence, replicate 2 = 2.55e5.
Knock-down of kmr #2 came out at: raw ATP luminescence, replicate 1 = 1.20e5; raw ATP luminescence, replicate 2 = 77660.
Knock-down of kmr #3 gave: raw ATP luminescence, replicate 1 = 94310; raw ATP luminescence, replicate 2 = 64210.
kmr #4 showed raw ATP luminescence, replicate 1 = 44153; raw ATP luminescence, replicate 2 = 31417.
For CG10337, the values are raw ATP luminescence, replicate 1 = 52740; raw ATP luminescence, replicate 2 = 71957.
Knock-down of CG34334 came out at: raw ATP luminescence, replicate 1 = 3.50e5; raw ATP luminescence, replicate 2 = 4.03e5.
Against Kr-h1 #1 the deposit lists raw ATP luminescence, replicate 1 = 2.44e5; raw ATP luminescence, replicate 2 = 2.51e5.
After knock-down of Kr-h1 #2, the record shows raw ATP luminescence, replicate 1 = 78310; raw ATP luminescence, replicate 2 = 44173.
Knock-down of obst-H #1 resulted in: raw ATP luminescence, replicate 1 = 82920; raw ATP luminescence, replicate 2 = 49460.
After knock-down of obst-H #2 the results were raw ATP luminescence, replicate 1 = 63567; raw ATP luminescence, replicate 2 = 41167.
Ir85a gave raw ATP luminescence, replicate 1 = 51400; raw ATP luminescence, replicate 2 = 55590.

In a second layout: results already given.
Gene	reagent	raw ATP luminescence, replicate 1	raw ATP luminescence, replicate 2
Kr-h1	1	2.44e5	2.51e5
Kr-h1	2	78310	44173

Next reagents follow.
With knock-down of CG6788, the record shows raw ATP luminescence, replicate 1 = 3.37e5; raw ATP luminescence, replicate 2 = 3.06e5.
LTV1 showed raw ATP luminescence, replicate 1 = 61717; raw ATP luminescence, replicate 2 = 47837.
For Poxn the deposit lists raw ATP luminescence, replicate 1 = 1.24e5; raw ATP luminescence, replicate 2 = 1.14e5.
With knock-down of CG13088, the screen gave raw ATP luminescence, replicate 1 = 28423; raw ATP luminescence, replicate 2 = 59447.
Knock-down of CG13032 resulted in: raw ATP luminescence, replicate 1 = 88893; raw ATP luminescence, replicate 2 = 76743.
With knock-down of gwl, the record shows raw ATP luminescence, replicate 1 = 60347; raw ATP luminescence, replicate 2 = 56940.
For RpL23, the entry reads raw ATP luminescence, replicate 1 = 30610; raw ATP luminescence, replicate 2 = 28033.
Knock-down of Trx2 came out at: raw ATP luminescence, replicate 1 = 36053; raw ATP luminescence, replicate 2 = 71723.
